Test results published in publication PMC7468199.

Protein sequences, listed by entry. Tags and fused reporters are not part of them.
UniProt A0A0H2ZM82: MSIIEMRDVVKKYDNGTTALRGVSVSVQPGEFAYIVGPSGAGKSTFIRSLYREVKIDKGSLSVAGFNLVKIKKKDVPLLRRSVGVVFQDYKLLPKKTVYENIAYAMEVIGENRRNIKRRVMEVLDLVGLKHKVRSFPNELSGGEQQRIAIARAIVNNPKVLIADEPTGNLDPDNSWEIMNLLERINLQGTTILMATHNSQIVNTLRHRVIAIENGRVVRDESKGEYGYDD

Target: FtsE from Streptococcus pneumoniae (Streptococcus pneumoniae strain R6)
Assay: crystal structure; FtsE at 8 mg/ml with ADP (space groups P 1 and P 2_(1)); 0.15 M sodium acetate, 0.1 M Bis-Tris propane (pH 6.5), 16% PEG3350, 291 K; both purified

Question: Which binding does the source give for “FtsE from Streptococcus pneumoniae (from UniProt A0A0H2ZM82 1-230) (enzyme)” here?
Answer: The binding was “no binding (tested: 8 mg/ml)”.

Results are given in words; binding and its absence hold for the method and conditions named.
